# Test: MTT assay, cytotoxicity on normal breast cells MCF-10A
# Assay type: cell-based
# Conditions: human, MCF-10A cells (normal breast cells)
compound,measurement,value
"CN[C@@H]1C[C@H]2O[C@@](C)([C@@H]1OC)n1c3ccccc3c3c4c(c5c6ccccc6n2c5c31)C(=O)NC4 [staurosporine, reference compound]",IC50 at 48 h,26.7 ± 1.62 µM
